Measurements reported in patent US20230146455A1 (Yuyu Pharma, Inc., priority 2020, published 2023).
Several values for one entry are separate records, joined by “and”; a condition that tells them apart may be missing. Equal values may be shown once. Where no unit stands, none is given here, and values compare only within one read-out. Where a SMILES comes first, the peptide text is derived from it. [ ]: non-standard residue; d: D form. Hyp = O=C(O)[C@@H]1C[C@@H](O)CN1

Legend:
Format in all cases: cell-based, human
CCL3/MIP-1 alpha = assay: Example 9 Luminex, LPS hPBMCs: CCL3/MIP-1 alpha
Protocol: (§1) Treatment Human PBMCs were pretreated with YY-101, YDE-011 and YDE-043 or reference compound; Xiidra® at various concentration (ranging from 1 nM to 100 uM) for 2 h before stimulation. An equal volume of 0.5% DMSO was used as a vehicle control. Then, the cells were treated with LPS at 5 ug/ml. The supernatants from treated cells were harvested at 24 h and placed in a 96 well for Luminex cytokine & chemokine profiling using a Luminex 200 multiplex assay (Luminex; R&D system, USA).
(§2) The main study arm with triplicate wells per group in a 24-well plate: • 1. Blank • 2. PBMC: 0.5% DMSO • 3. PBMC+LPS (5 ug/ml) • 4. PBMC+YY-101 100 uM • 5. PBMC+YY-101 10 uM • 6. PBMC+YY-101 1 uM • 7. PBMC+YY-101 0.1 uM • 8. PBMC+YY-101 0.01 uM • 9. PBMC+LPS (5 ug/ml)+Xiidra®100 uM • 10. PBMC+LPS (5 ug/ml)+Xiidra® 10 uM • 11. PBMC+LPS (5 ug/ml)+Xiidra® 1 uM • 12. PBMC+LPS (5 ug/ml)+Xiidra®0.1 uM • 13. PBMC+LPS (5 ug/ml)+Xiidra®0.01 uM • 14. PBMC+LPS (5 ug/ml)+Xiidra®0.001 uM • 15. PBMC+LPS (5 ug/ml)+YY-101 100 uM • 16. PBMC+LPS (5 ug/ml)+YY-101 10 uM • 17. PBMC+LPS (5 ug/ml)+YY-101 1 uM • 18. PBMC+LPS (5 ug/ml)+YY-101 0.1 uM • 19. PBMC+LPS (5 ug/ml)+YY-101 0.01 uM • 20. PBMC+LPS (5 ug/ml)+YY-101 0.001 uM • 21. PBMC+LPS (5 ug/ml)+YDE-011 100 uM • 22. PBMC+LPS (5 ug/ml)+YDE-011 10 uM • 23. PBMC+LPS (5 ug/ml)+YDE-011 1 uM • 24. PBMC+LPS (5 ug/ml)+YDE-011 0.1 uM • 25. PBMC+LPS (5 ug/ml)+YDE-011 0.01 uM • 26. PBMC+LPS (5 ug/ml)+YDE-011 0.001 uM • 27. PBMC+LPS (5 ug/ml)+YDE-043 100 uM • 28. PBMC+LPS (5 ug/ml)+YDE-043 10 uM • 29. PBMC+LPS (5 ug/ml)+YDE-043 1 uM • 30. PBMC+LPS (5 ug/ml)+YDE-043 0.1 uM • 31. PBMC+LPS (5 ug/ml)+YDE-043 0.01 uM • 32. PBMC+LPS (5 ug/ml)+YDE-043 0.001 uM
(§3) Multiplex assay was used to measure 30 cytokines and chemokines. The 1:2, 1:10 and 1:200 diluted cell supernatant and serial dilution of the standard were dispensed into a 96 well plate at 50 ul/well. Then, the pre-mixed cocktail of antibody-coated magnetic beads was dispensed at 50 ul/well and incubated at room temperature for 2 h in a horizontal orbital microplate shaker at 800±500 rpm. The beads were washed using a magnetic device to prevent loss. The biotin-antibody was dispensed in 50 ul of each well and incubated at room temperature for 1 h in a shaker at 800±500 rpm. After washing, streptavidin-PE was added at 50 ul/well and incubated at room temperature for 30 min in a shaker under the same conditions. Finally, after washing, wash buffer (100 ul/well) was added to the plate and incubated in a shaker for 2 min. The Luminex™ 200 setting were set according to the manufacturer's protocol. The data was calculated with a standard five-parameter logistic nonlinear regression analysis of the data (xPonent software 4.2, USA). The levels of cytokine/chemokine are normalized to the live cell counts (1×10^5 cells/mL) and presented as concentrations per mL (pg/mL or ng/mL).

IL-8 = assay: Example 9 Luminex, LPS hPBMCs: IL-8; settings: Bead IL-8
Protocol: as §1, §2, §3

CCL2/JE/MCP-1 = assay: Example 9 Luminex, LPS hPBMCs: CCL2/JE/MCP-1; settings: Bead CCL2/JE/MCP-1
Protocol: as §1, §2, §3

[1] = PBMC + LPS(5 ug/ml) + test article 0.001 uM, Mean
[2] = PBMC + LPS(5 ug/ml) + test article 0.001 uM, individual replicates
[3] = PBMC + LPS(5 ug/ml) + test article 0.01 uM, Mean
[4] = PBMC + LPS(5 ug/ml) + test article 0.01 uM, individual replicates
[5] = PBMC + LPS(5 ug/ml) + test article 0.1 uM, Mean
[6] = PBMC + LPS(5 ug/ml) + test article 0.1 uM, individual replicates
[7] = PBMC + LPS(5 ug/ml) + test article 1 uM, Mean
[8] = PBMC + LPS(5 ug/ml) + test article 1 uM, individual replicates
[9] = PBMC + LPS(5 ug/ml) + test article 10 uM, Mean
[10] = PBMC + LPS(5 ug/ml) + test article 10 uM, individual replicates
[11] = PBMC + LPS(5 ug/ml) + test article 100 uM, Mean
[12] = PBMC + LPS(5 ug/ml) + test article 100 uM, individual replicates
[13] = PBMC + test article 0.01 uM, no LPS, Mean
[14] = PBMC + test article 0.01 uM, no LPS, individual replicates
[15] = PBMC + test article 0.1 uM, no LPS, Mean
[16] = PBMC + test article 0.1 uM, no LPS, individual replicates
[17] = PBMC + test article 1 uM, no LPS, Mean
[18] = PBMC + test article 1 uM, no LPS, individual replicates
[19] = PBMC + test article 10 uM, no LPS, Mean
[20] = PBMC + test article 10 uM, no LPS, individual replicates
[21] = PBMC + test article 100 uM, no LPS, Mean
[22] = PBMC + test article 100 uM, no LPS, individual replicates

In the case of CC(C)C[C@H](NC(=O)CNC(=O)[C@H](CC(=O)O)NC(=O)[C@H](CCC(N)=O)NC(=O)CNC(=O)[C@@H]1C[C@@H](O)CN1)C(=O)N[C@@H](C)C(=O)NCC(=O)N1CCC[C@H]1C(=O)N[C@@H](CCCCN)C(=O)O [YY-101] (H-[Hyp]GQDGLAGPK-OH; N-terminus and C-terminus assumed), the MFI (CCL3/MIP-1 alpha; [1]) is reported as 1954.8, the MFI (CCL3/MIP-1 alpha; [2]) is reported as 2104.5 and 1995.5 and 1764.5 and the MFI (CCL3/MIP-1 alpha; [3]) is reported as 2237.7. The MFI (CCL3/MIP-1 alpha; [4]) was 2293.5 and 2303.0 and 2116.5, the MFI (CCL3/MIP-1 alpha; [5]) was 2170.3 and the MFI (CCL3/MIP-1 alpha; [6]) was 2157.0 and 2199.5 and 2154.5. For the same compound, the MFI (CCL3/MIP-1 alpha; [7]) was 2115.0, the MFI (CCL3/MIP-1 alpha; [8]) was 2206.5 and 2029.0 and 2109.5 and the MFI (CCL3/MIP-1 alpha; [9]) was 2386.2. The MFI (CCL3/MIP-1 alpha; [10]) was 2406.5 and 2501.0 and 2251.0, the MFI (CCL3/MIP-1 alpha; [11]) was 2879.0 and the MFI (CCL3/MIP-1 alpha; [12]) was 3190.5 and 2648.5 and 2798.0. The MFI (CCL3/MIP-1 alpha; [13]) was −0.3, the MFI (CCL3/MIP-1 alpha; [14]) was 0.5 and −1.0 and the MFI (CCL3/MIP-1 alpha; [15]) was −0.5. For the same compound, the MFI (CCL3/MIP-1 alpha; [16]) was −0.5, the MFI (CCL3/MIP-1 alpha; [17]) was 1.0 and the MFI (CCL3/MIP-1 alpha; [18]) was 1.5 and 0.5. The MFI (CCL3/MIP-1 alpha; [19]) was 3.5, the MFI (CCL3/MIP-1 alpha; [20]) was 7.5 and −0.5 and the MFI (CCL3/MIP-1 alpha; [21]) was 1.0. The MFI (CCL3/MIP-1 alpha; [22]) was 2.5 and −0.5, the MFI (IL-8; [1]) was 1540.7 and the MFI (IL-8; PBMC + LPS(5 ug/ml) + test article 0.001 uM, single replicates (1st, 2nd, 3rd)) was 1479.5 and 1465.5 and 1677.0. For the same compound, the MFI (IL-8; [3]) was 1489.0, the MFI (IL-8; PBMC + LPS(5 ug/ml) + test article 0.01 uM, single replicates (1st, 2nd, 3rd)) was 1486.0 and 1465.5 and 1515.5 and the MFI (IL-8; [5]) was 1373.5. For the same compound, the MFI (IL-8; PBMC + LPS(5 ug/ml) + test article 0.1 uM, single replicates (1st, 2nd, 3rd)) was 1353.5 and 1407.5 and 1359.5, the MFI (IL-8; [7]) was 1505.0 and the MFI (IL-8; PBMC + LPS(5 ug/ml) + test article 1 uM, single replicates (1st, 2nd, 3rd)) was 1476.5 and 1478.5 and 1560.0. For the same compound, the MFI (IL-8; [9]) was 1522.5, the MFI (IL-8; PBMC + LPS(5 ug/ml) + test article 10 uM, single replicates (1st, 2nd, 3rd)) was 1511.5 and 1649.0 and 1407.0 and the MFI (IL-8; [11]) was 1517.2. For the same compound, the MFI (IL-8; PBMC + LPS(5 ug/ml) + test article 100 uM, single replicates (1st, 2nd, 3rd)) was 1574.5 and 1532.5 and 1444.5, the MFI (IL-8; [13]) was 162.8 and the MFI (IL-8; PBMC + test article 0.01 uM, no LPS, single replicates (1st, 2nd)) was 95.5 and 230.0. The MFI (IL-8; [15]) was 147.8, the MFI (IL-8; PBMC + test article 0.1 uM, no LPS, single replicates (1st, 2nd)) was 90.0 and 205.5 and the MFI (IL-8; [17]) was 153.5. For the same compound, the MFI (IL-8; PBMC + test article 1 uM, no LPS, single replicates (1st, 2nd)) was 149.5 and 157.5, the MFI (IL-8; [19]) was 697.0 and the MFI (IL-8; PBMC + test article 10 uM, no LPS, single replicates (1st, 2nd)) was 1227.5 and 166.5. The MFI (IL-8; [21]) was 511.5, the MFI (IL-8; PBMC + test article 100 uM, no LPS, single replicates (1st, 2nd)) was 664.5 and 358.5 and the MFI (CCL2/JE/MCP-1; [1]) was 13155.3. For the same compound, the MFI (CCL2/JE/MCP-1; [2]) was 12717.0 and 12912.0 and 13837.0, the MFI (CCL2/JE/MCP-1; [3]) was 13399.2 and the MFI (CCL2/JE/MCP-1; [4]) was 13686.0 and 13444.5 and 13067.0. The MFI (CCL2/JE/MCP-1; [5]) was 12213.3, the MFI (CCL2/JE/MCP-1; [6]) was 12267.0 and 12562.0 and 11811.0 and the MFI (CCL2/JE/MCP-1; [7]) was 13380.5. The MFI (CCL2/JE/MCP-1; [8]) was 13078.5 and 13103.0 and 13960.0, the MFI (CCL2/JE/MCP-1; [9]) was 11852.3 and the MFI (CCL2/JE/MCP-1; [10]) was 11415.0 and 12533.0 and 11609.0. For the same compound, the MFI (CCL2/JE/MCP-1; [11]) was 1176.7, the MFI (CCL2/JE/MCP-1; [12]) was 992.0 and 1275.0 and 1263.0 and the MFI (CCL2/JE/MCP-1; [13]) was 10422.3. For the same compound, the MFI (CCL2/JE/MCP-1; [14]) was 4825.5 and 16019.0, the MFI (CCL2/JE/MCP-1; [15]) was 6839.3 and the MFI (CCL2/JE/MCP-1; [16]) was 4052.5 and 9626.0. For the same compound, the MFI (CCL2/JE/MCP-1; [17]) was 5920.5, the MFI (CCL2/JE/MCP-1; [18]) was 4611.0 and 7230.0 and the MFI (CCL2/JE/MCP-1; [19]) was 16393.8. The MFI (CCL2/JE/MCP-1; [20]) was 22755.0 and 10032.5, the MFI (CCL2/JE/MCP-1; [21]) was 3076.8 and the MFI (CCL2/JE/MCP-1; [22]) was 4286.0 and 1867.5.
